PubChem BioAssay AID1259308, NCATS, 2017
Shown is an unselected part of about 59,000 reagents tested. Of all reagents, about 1,510 (2.6%) got an active call. 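Calls use total luciferase alone and ignore viability, so some active siRNAs may act by altering cell number.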 The numbers tell different reagents against one gene apart.

Aim: 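Candidate targets for better recombinant protein yield in mammalian cells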 (primary screen)
Cells: human HEK293 embryonic kidney cells stably expressing firefly luciferase (HEK-CMV-Luc2-Hygro)
Reagents: single siRNA against human genes, 0.8 pmol siRNA per well
Time to read-out: 72 h
Read-out: 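Luciferase light (ONE-Glo) measured on one replicate plate set and viability (CellTiter-Glo) on the other, scaled to a negative control siRNA, with robust z-scores and luciferase per cell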
Direction: total luciferase, z-score and total luciferase, % of control: higher = more reporter protein produced; luciferase per cell, z-score: higher = more reporter output per viable cell; viable cells, % of control: higher = more viable cells
Active means: 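An siRNA counts as active if its total luciferase robust z-score exceeds 3; genes with two or more such siRNAs out of three were retested with fresh siRNAs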
Calls: active = raised luciferase; inactive = no rise

| target | reagent | total luciferase, z-score | total luciferase, % of control | luciferase per cell, z-score | viable cells, % of control | Call |
| --- | --- | --- | --- | --- | --- | --- |
| DLGAP1 (DLG associated protein 1) | 1 | -0.294 | 76 | -0.261 | 91 | inactive |
| DLGAP1 (DLG associated protein 1) | 2 | -0.733 | 67.3 | -0.946 | 96.5 | inactive |
| DLGAP1 (DLG associated protein 1) | 3 | -0.117 | 79.6 | -0.517 | 102 | inactive |
| DLGAP1 (DLG associated protein 1) | 4 | -0.0475 | 80.9 | 0.158 | 86.8 | inactive |
| DLGAP1 (DLG associated protein 1) | 5 | -0.634 | 69.3 | -0.00946 | 77.6 | inactive |
| DLGAP1 (DLG associated protein 1) | 6 | 1.06 | 103 | 0.587 | 98.7 | inactive |
| SHOC2 (SHOC2 leucine rich repeat scaffold protein) | 1 | -0.295 | 76 | 0.404 | 76.4 | inactive |
| SHOC2 (SHOC2 leucine rich repeat scaffold protein) | 2 | 0.208 | 86 | -0.0336 | 97 | inactive |
| SHOC2 (SHOC2 leucine rich repeat scaffold protein) | 3 | -0.469 | 72.6 | 0.161 | 77.7 | inactive |
| TOGARAM2 (TOG array regulator of axonemal microtubules 2) | 1 | -0.256 | 76.8 | -0.796 | 106 | inactive |
| TOGARAM2 (TOG array regulator of axonemal microtubules 2) | 2 | -0.171 | 78.5 | -0.375 | 96.8 | inactive |
| TOGARAM2 (TOG array regulator of axonemal microtubules 2) | 3 | -0.739 | 67.2 | -0.129 | 77.7 | inactive |
| UGT2B17 (UDP glucuronosyltransferase family 2 member B17) | 1 | -0.64 | 69.2 | -0.863 | 97 | inactive |
| UGT2B17 (UDP glucuronosyltransferase family 2 member B17) | 2 | -0.251 | 76.9 | -0.592 | 100 | inactive |
| UGT2B17 (UDP glucuronosyltransferase family 2 member B17) | 3 | -0.481 | 72.3 | -0.888 | 102 | inactive |
| HSD52 | 1 | -0.855 | 64.9 | -0.279 | 78 | inactive |
| HSD52 | 2 | 0.0795 | 83.5 | 0.958 | 72.5 | inactive |
| HSD52 | 3 | -0.244 | 77 | 0.177 | 82.2 | inactive |
| FKBP10 (FKBP prolyl isomerase 10) | 1 | -0.296 | 76 | -0.797 | 105 | inactive |
| FKBP10 (FKBP prolyl isomerase 10) | 2 | 1.26 | 107 | 1.21 | 86.9 | inactive |
| FKBP10 (FKBP prolyl isomerase 10) | 3 | -0.678 | 68.4 | -1.68 | 119 | inactive |
| PPM1N (protein phosphatase, Mg2+/Mn2+ dependent 1N (putative)) | 1 | -0.696 | 68.1 | 0.201 | 72.1 | inactive |
| PPM1N (protein phosphatase, Mg2+/Mn2+ dependent 1N (putative)) | 2 | 0.527 | 92.4 | 0.764 | 84.4 | inactive |
| PPM1N (protein phosphatase, Mg2+/Mn2+ dependent 1N (putative)) | 3 | 0.109 | 84 | -0.274 | 101 | inactive |

Entries above whose gene name starts with S or s:
| target | reagent | total luciferase, z-score | total luciferase, % of control | luciferase per cell, z-score | viable cells, % of control | Call |
| --- | --- | --- | --- | --- | --- | --- |
| SHOC2 (SHOC2 leucine rich repeat scaffold protein) | 1 | -0.295 | 76 | 0.404 | 76.4 | inactive |
| SHOC2 (SHOC2 leucine rich repeat scaffold protein) | 2 | 0.208 | 86 | -0.0336 | 97 | inactive |
| SHOC2 (SHOC2 leucine rich repeat scaffold protein) | 3 | -0.469 | 72.6 | 0.161 | 77.7 | inactive |

Additional reagents:
| target | reagent | total luciferase, z-score | total luciferase, % of control | luciferase per cell, z-score | viable cells, % of control | Call |
| --- | --- | --- | --- | --- | --- | --- |
| PGM3 (phosphoglucomutase 3) | 1 | -0.211 | 77.7 | -0.0895 | 88.9 | inactive |
| PGM3 (phosphoglucomutase 3) | 2 | -0.193 | 78.1 | -0.303 | 94.5 | inactive |
| PGM3 (phosphoglucomutase 3) | 3 | 0.557 | 93 | 1.83 | 64.2 | inactive |
| CD300A (CD300a molecule) | 1 | 0.24 | 86.7 | 0.938 | 75.7 | inactive |
| CD300A (CD300a molecule) | 2 | 2.92 | 140 | 0.861 | 125 | inactive |
| CD300A (CD300a molecule) | 3 | 1.06 | 103 | 0.868 | 91.6 | inactive |
| MGAT4B | 1 | -0.703 | 67.9 | -0.0213 | 76.3 | inactive |
| MGAT4B | 2 | 0.306 | 88 | 0.0518 | 97 | inactive |
| MGAT4B | 3 | 4.32 | 168 | 1.85 | 115 | active |
| CD302 (CD302 molecule) | 1 | 1.14 | 105 | 0.261 | 109 | inactive |
| CD302 (CD302 molecule) | 2 | 0.117 | 84.2 | -0.613 | 111 | inactive |
| CD302 (CD302 molecule) | 3 | 0.105 | 84 | -0.0962 | 96.2 | inactive |
| CSNK1A1L (casein kinase 1 alpha 1 like) | 1 | 0.577 | 93.4 | 0.698 | 86.8 | inactive |
| CSNK1A1L (casein kinase 1 alpha 1 like) | 2 | -0.303 | 75.9 | -0.272 | 91.1 | inactive |
| CSNK1A1L (casein kinase 1 alpha 1 like) | 3 | -0.3 | 75.9 | -0.994 | 110 | inactive |
| TAFA5 (TAFA chemokine like family member 5) | 1 | -0.226 | 77.4 | 1.39 | 59.9 | inactive |
| TAFA5 (TAFA chemokine like family member 5) | 2 | 0.582 | 93.5 | 0.155 | 100 | inactive |
| TAFA5 (TAFA chemokine like family member 5) | 3 | -0.0991 | 79.9 | 0.0403 | 88.4 | inactive |
| FANK1 (fibronectin type III and ankyrin repeat domains 1) | 1 | -0.678 | 68.4 | -0.837 | 95.3 | inactive |
| FANK1 (fibronectin type III and ankyrin repeat domains 1) | 2 | -0.127 | 79.4 | -1.05 | 117 | inactive |
| FANK1 (fibronectin type III and ankyrin repeat domains 1) | 3 | -0.0971 | 80 | 0.065 | 87.8 | inactive |
| KIRREL3 (kirre like nephrin family adhesion molecule 3) | 1 | -0.749 | 67 | -0.453 | 84.4 | inactive |
| KIRREL3 (kirre like nephrin family adhesion molecule 3) | 2 | -0.134 | 79.2 | 0.151 | 85.1 | inactive |
| KIRREL3 (kirre like nephrin family adhesion molecule 3) | 3 | -0.956 | 62.9 | -0.36 | 77.2 | inactive |
| NAALAD2 (N-acetylated alpha-linked acidic dipeptidase 2) | 1 | 1.35 | 109 | 0.448 | 108 | inactive |
| NAALAD2 (N-acetylated alpha-linked acidic dipeptidase 2) | 2 | 0.37 | 89.3 | 0.341 | 91.2 | inactive |
| NAALAD2 (N-acetylated alpha-linked acidic dipeptidase 2) | 3 | 1.51 | 112 | 0.308 | 115 | inactive |
| RIN3 (Ras and Rab interactor 3) | 1 | 1.06 | 103 | 1.87 | 70.2 | inactive |
| RIN3 (Ras and Rab interactor 3) | 2 | -0.54 | 71.1 | -0.824 | 98.7 | inactive |
| RIN3 (Ras and Rab interactor 3) | 3 | 1.86 | 119 | 1.25 | 95.7 | inactive |
| CRTC3 (CREB regulated transcription coactivator 3) | 1 | 1.97 | 121 | 1.87 | 82.7 | inactive |
| CRTC3 (CREB regulated transcription coactivator 3) | 2 | -0.687 | 68.2 | -1.04 | 100 | inactive |
| CRTC3 (CREB regulated transcription coactivator 3) | 3 | 0.801 | 97.8 | 0.236 | 103 | inactive |
